This is one part of the list.

Protein sequences, listed by entry. Tags and fused reporters are not part of them. Lines headed by an entry give the natural chain unless they say otherwise; changes in a name come on top.
UniProt Q96PK6: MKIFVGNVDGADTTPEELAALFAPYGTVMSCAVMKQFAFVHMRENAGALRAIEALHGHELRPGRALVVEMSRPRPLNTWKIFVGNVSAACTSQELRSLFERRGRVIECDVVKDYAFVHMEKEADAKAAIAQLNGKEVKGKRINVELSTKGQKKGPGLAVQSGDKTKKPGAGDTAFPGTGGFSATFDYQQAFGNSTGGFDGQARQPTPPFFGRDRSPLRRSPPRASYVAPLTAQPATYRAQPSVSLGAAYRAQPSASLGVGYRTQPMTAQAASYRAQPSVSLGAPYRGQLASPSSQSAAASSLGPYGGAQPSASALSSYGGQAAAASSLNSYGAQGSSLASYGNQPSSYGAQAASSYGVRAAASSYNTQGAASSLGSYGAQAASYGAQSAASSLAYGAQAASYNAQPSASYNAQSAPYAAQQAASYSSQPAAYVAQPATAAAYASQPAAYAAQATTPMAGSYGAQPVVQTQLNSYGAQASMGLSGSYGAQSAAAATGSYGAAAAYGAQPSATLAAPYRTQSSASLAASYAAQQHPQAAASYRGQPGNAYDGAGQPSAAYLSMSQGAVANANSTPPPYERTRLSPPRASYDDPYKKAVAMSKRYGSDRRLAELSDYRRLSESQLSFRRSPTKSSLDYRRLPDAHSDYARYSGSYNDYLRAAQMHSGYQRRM
UniProt P20337: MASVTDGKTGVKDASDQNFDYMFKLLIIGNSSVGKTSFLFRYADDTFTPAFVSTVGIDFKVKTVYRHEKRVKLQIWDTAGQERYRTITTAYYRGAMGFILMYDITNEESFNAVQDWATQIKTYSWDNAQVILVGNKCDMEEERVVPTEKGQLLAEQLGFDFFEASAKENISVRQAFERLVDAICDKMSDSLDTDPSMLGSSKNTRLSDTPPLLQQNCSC
UniProt Q15311: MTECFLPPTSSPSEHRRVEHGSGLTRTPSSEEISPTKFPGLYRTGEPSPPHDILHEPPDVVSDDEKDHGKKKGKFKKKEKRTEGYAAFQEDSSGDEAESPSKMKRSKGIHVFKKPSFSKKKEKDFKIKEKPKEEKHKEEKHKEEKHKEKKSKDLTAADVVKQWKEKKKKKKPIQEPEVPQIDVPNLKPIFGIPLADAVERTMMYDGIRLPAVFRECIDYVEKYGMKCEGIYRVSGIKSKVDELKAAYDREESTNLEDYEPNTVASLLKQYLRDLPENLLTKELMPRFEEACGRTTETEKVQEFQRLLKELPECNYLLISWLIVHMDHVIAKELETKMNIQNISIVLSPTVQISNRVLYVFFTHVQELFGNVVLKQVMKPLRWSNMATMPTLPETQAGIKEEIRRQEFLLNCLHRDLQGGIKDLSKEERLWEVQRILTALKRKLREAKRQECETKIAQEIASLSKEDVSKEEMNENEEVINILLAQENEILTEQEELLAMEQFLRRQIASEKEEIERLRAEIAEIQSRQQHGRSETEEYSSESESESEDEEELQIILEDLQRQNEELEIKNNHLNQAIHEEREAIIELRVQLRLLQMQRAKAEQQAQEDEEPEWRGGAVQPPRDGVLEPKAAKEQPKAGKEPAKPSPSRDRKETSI
UniProt P20936: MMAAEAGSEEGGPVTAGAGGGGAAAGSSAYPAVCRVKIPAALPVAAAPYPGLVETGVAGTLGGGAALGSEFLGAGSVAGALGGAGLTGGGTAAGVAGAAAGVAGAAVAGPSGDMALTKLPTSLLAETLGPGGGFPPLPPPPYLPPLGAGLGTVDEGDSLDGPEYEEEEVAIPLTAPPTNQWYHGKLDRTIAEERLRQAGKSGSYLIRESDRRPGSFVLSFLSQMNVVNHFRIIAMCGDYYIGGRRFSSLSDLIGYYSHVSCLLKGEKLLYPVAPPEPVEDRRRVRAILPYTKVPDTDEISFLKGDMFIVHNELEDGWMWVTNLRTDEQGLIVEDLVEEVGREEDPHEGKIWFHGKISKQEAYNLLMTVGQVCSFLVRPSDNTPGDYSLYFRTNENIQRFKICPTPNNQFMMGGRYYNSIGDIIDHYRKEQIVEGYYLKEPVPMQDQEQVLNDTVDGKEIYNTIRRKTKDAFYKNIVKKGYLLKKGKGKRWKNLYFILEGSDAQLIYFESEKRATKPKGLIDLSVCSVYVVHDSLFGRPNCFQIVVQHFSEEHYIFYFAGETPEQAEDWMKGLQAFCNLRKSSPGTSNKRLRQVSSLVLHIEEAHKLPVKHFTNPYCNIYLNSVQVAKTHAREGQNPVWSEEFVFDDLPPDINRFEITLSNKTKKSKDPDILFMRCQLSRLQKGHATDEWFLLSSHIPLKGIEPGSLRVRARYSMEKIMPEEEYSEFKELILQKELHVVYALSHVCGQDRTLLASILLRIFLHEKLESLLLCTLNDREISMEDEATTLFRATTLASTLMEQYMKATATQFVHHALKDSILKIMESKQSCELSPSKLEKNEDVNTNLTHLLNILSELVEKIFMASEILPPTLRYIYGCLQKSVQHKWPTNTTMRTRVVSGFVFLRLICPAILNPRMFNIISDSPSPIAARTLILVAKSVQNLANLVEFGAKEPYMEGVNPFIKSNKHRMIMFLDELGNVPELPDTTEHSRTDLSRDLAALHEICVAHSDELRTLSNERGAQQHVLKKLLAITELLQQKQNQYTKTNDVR
UniProt O75943: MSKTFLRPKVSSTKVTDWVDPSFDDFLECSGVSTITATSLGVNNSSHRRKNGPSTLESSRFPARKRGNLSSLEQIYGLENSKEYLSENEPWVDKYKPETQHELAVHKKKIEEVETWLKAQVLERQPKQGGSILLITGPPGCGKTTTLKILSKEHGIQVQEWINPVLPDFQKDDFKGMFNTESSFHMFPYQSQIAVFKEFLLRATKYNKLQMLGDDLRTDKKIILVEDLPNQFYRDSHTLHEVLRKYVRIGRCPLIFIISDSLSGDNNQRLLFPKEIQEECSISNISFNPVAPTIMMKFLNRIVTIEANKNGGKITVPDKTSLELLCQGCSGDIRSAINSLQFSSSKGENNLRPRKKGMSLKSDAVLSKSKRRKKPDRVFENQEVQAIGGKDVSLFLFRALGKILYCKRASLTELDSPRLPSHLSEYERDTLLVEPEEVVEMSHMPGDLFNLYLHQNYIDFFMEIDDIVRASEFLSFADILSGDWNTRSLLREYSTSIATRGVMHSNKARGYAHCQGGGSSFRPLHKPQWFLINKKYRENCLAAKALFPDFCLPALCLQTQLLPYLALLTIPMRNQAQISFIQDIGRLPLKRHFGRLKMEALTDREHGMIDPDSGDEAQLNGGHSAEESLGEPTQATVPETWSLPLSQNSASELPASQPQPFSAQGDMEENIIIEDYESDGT
UniProt Q99708: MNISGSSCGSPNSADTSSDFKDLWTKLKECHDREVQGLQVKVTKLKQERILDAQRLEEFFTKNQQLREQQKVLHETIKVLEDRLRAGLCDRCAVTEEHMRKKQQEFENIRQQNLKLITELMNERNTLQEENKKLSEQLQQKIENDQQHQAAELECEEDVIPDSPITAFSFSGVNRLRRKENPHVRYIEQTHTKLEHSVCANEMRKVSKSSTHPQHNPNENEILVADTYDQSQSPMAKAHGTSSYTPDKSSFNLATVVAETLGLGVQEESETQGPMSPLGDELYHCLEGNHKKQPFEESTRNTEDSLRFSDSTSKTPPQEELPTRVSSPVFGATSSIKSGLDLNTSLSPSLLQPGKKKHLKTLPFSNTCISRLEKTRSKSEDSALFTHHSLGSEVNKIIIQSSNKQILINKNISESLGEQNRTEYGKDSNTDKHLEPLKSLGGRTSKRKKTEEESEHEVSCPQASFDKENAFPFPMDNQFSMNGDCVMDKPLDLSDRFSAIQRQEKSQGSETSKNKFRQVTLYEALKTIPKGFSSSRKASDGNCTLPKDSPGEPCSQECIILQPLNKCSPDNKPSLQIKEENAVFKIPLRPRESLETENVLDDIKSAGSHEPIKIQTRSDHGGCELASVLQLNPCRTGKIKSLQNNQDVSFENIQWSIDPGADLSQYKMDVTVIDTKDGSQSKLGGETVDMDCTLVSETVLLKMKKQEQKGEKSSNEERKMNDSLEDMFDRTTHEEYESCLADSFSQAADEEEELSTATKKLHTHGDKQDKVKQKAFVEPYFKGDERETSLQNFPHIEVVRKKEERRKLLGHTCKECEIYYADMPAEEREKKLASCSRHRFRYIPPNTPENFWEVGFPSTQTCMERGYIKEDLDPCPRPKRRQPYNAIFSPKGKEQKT
UniProt O75771: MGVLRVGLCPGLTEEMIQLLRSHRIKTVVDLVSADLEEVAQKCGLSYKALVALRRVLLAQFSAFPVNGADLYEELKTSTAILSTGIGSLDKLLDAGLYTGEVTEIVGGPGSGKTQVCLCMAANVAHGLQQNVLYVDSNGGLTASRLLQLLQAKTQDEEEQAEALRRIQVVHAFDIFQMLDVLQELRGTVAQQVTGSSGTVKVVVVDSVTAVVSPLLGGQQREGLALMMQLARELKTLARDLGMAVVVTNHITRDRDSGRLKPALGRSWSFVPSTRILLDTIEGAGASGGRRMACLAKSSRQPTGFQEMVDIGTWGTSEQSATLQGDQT
UniProt O00194: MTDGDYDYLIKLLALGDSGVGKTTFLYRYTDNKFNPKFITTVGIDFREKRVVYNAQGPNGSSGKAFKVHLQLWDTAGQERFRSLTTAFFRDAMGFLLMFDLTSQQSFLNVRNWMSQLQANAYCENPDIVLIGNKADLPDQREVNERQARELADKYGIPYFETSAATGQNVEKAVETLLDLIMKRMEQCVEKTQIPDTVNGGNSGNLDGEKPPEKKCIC
UniProt Q86X10: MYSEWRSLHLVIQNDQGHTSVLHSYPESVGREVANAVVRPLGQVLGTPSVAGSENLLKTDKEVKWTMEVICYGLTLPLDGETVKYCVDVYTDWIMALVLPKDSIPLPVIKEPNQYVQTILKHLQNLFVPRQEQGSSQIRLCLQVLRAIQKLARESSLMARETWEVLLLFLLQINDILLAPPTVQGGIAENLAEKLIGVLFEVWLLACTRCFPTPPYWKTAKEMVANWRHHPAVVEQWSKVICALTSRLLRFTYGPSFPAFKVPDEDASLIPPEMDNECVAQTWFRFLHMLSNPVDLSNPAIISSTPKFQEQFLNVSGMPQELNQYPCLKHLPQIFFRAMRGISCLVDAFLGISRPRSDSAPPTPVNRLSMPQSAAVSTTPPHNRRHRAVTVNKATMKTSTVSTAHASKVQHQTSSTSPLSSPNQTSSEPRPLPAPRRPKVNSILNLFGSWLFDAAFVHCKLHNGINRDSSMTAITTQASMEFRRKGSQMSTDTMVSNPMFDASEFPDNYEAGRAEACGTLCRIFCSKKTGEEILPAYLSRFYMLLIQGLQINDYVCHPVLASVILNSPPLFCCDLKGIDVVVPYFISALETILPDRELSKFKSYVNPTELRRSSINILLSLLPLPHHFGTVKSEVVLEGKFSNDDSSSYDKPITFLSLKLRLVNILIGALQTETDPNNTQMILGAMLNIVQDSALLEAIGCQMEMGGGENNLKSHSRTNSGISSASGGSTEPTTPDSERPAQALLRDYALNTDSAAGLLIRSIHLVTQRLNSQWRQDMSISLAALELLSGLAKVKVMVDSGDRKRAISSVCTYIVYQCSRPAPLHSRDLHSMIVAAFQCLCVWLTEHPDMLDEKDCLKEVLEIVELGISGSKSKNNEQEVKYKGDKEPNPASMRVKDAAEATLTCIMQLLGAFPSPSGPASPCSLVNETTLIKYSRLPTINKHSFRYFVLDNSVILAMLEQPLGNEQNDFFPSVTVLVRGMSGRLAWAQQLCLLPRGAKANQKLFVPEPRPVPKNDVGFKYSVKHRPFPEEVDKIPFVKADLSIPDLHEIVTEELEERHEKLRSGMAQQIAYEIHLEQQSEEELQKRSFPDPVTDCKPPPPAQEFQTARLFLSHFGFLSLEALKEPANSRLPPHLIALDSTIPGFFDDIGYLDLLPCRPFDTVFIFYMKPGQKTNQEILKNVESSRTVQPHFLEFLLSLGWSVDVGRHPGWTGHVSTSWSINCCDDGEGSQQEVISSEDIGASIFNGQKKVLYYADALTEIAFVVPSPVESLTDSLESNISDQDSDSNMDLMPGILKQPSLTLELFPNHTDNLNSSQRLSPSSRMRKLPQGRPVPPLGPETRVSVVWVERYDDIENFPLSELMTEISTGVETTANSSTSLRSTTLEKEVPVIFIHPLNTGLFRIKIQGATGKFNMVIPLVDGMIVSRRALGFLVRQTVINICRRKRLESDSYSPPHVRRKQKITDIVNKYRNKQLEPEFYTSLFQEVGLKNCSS
UniProt A4D1S5: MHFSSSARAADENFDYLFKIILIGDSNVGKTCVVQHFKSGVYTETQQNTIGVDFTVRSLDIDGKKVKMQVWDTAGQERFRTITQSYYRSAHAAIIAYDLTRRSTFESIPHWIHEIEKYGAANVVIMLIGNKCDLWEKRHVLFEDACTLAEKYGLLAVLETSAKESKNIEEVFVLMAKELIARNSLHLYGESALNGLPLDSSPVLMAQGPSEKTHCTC

Compound in the first experiment: C1CCN(C1)C(=O)NC2=CC=CC(=C2)NC3=NC=C(C(=N3)NCCC4=CN=CN4)Br
In words: log2 fold change, soluble protein after heating vs DMSO (PISA); higher = thermal stabilisation; K562 cells, 10 uM, 30 min; active = over 0.2 and 3.5 SD of the protein, either way, in both replicates (recomputed). The procedure, abridged:
(§1)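 Aliquots of K562 cells (2×10^6 cells/mL) treated with 10 μM compound for 30 min were heated for 3 min over 48°C-58°C. After pooling and extraction in PBS with 0.5% NP-40 at 4°C, soluble protein from a 21,000xg, 90 min spin was quantified by TMTpro 16plex LC-MS/MS with channel sums equalised. Thermal stability is expressed against control samples, from duplicates, as a log2 fold change.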
With RBM14 (UniProt Q96PK6), the log2 fold change is inactive: -0.064.
With RAD50, A0A494C0Y7, the log2 fold change was inactive: -0.033.
The same measure, in the same setting: with RAB3B (UniProt P20337) the figure was inactive: -0.078.
On the same count and under the same terms, with RANBP3 isoform 2 (UniProt Q9H6Z4) the figure was inactive: 0.042; with RAB18 (UniProt H0Y6T8), inactive: 0.185.
The same measure, in the same setting: next, RALBP1 (UniProt Q15311): inactive: 0.253; RASA1 (UniProt P20936): inactive: 0.082.
Regarding RAD17 (UniProt O75943), the log2 fold change was inactive: 0.035.
On the same count and under the same terms, with RBBP8 isoform 2 (UniProt Q99708) the figure was inactive: -0.087; with RBCK1 (UniProt Q9BYM8), inactive: -0.057; with RAD51D (UniProt O75771), inactive: 0.029.
On the same count and under the same terms, with RAB27B (UniProt O00194) the figure was inactive: -0.182; with RAPGEF5, A0A590UJR0, inactive: 0.168.
Still for that read-out and setting: with RALGAPB (UniProt Q86X10) the figure was inactive: -0.063; with RAB3D (UniProt O95716), inactive: 0.007.

Compound in another experiment: C1CN(CCC1(CC2=CC=C(C=C2)Cl)N)C3=NC=NC4=C3C=CN4
The experiment is described as above. The procedure, abridged:
as §1
In the case of RBM14 (UniProt Q96PK6), the log2 fold change is inactive: -0.529.
Still for that read-out and setting: next, RAD50, A0A494C0Y7: inactive: 0.143; RAB3B (UniProt P20337): inactive: -0.089.
As for RANBP3 isoform 2 (UniProt Q9H6Z4), the log2 fold change was inactive: 0.158.
Consider RAB18 (UniProt H0Y6T8), for which the log2 fold change was inactive: 0.186.
Still for that read-out and setting: next, RALBP1 (UniProt Q15311): inactive: -0.119; RASA1 (UniProt P20936): inactive: -0.074; RAD17 (UniProt O75943): inactive: -0.086.
Still for that read-out and setting: with RBBP8 isoform 2 (UniProt Q99708) the figure was inactive: -0.21.
Take RBCK1 (UniProt Q9BYM8): the log2 fold change was inactive: -0.029.
Still for that read-out and setting: next, RAD51D (UniProt O75771): inactive: -0.031; RAB27B (UniProt O00194): inactive: 0.011.
Take RAPGEF5, A0A590UJR0: the log2 fold change was inactive: -0.031.
On the same count and under the same terms, with RALGAPB (UniProt Q86X10) the figure was inactive: -0.098.
Same read-out and setting: next, RAB3D (UniProt O95716): inactive: 0.036.

Compound in the next experiment: C1COCCN1CCN2C3=CC=CC=C3N=C2NC(=O)C4=CC(=CC=C4)[N+](=O)[O-] [IRAK-1-4 Inhibitor I]
The description is as above. The procedure, abridged:
as §1
Consider RBM14 (UniProt Q96PK6), for which the log2 fold change is inactive: -0.143.
The same measure, in the same setting: with RAB28 (UniProt P51157) the figure was inactive: -0.044; with RAD50, A0A494C0Y7, inactive: 0.015; with RAB19 isoform 2 (UniProt A4D1S5), inactive: -0.051.
Still for that read-out and setting: next, RAB18 (UniProt H0Y6T8): inactive: -0.084; RALBP1 (UniProt Q15311): inactive: -0.23.
On the same count and under the same terms, next, RASA1 (UniProt P20936): inactive: -0.076; RAD17 (UniProt O75943): inactive: -0.124.
Turning to RASA2 (UniProt Q15283), the log2 fold change was inactive: 0.053.
Still for that read-out and setting: with RBBP8 isoform 2 (UniProt Q99708) the figure was inactive: -0.012.
For the target RAP1B (UniProt F5GWU8), the log2 fold change was inactive: 0.111.
As to RAD51D (UniProt O75771), the log2 fold change was inactive: -0.007.
Take RANBP6 (UniProt O60518): the log2 fold change is inactive: -0.265.
In the case of RAB27B (UniProt O00194), the log2 fold change is inactive: 0.142.
Consider RAPGEF5, A0A590UJR0, for which the log2 fold change was inactive: 0.04.
As for RALGAPB (UniProt Q86X10), the log2 fold change was inactive: -0.078.

(Values after the supplement of paper PMC10849652.)
